{"source": "PubChem BioAssay AID1347423", "about": "(Functional Genomics Laboratory (NCATS/FGL), 2020)", "note": "The campaign covered roughly 52,000 sequences. About 210 (0.4%) were called active.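 Rule for the calls: active = gene whose silencing raises cell survival under the drug, median off-target-corrected z-score across its silencing RNAs 2 or more; inactive = the rest.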 Some of the results follow.", "data": [{"assay": "Resistance to Poly (ADP-Ribose) Polymerase inhibitor: Gene Identification via Genome-wide siRNA Screen", "details": "mouse BRCA2 R2336H ES cells, olaparib, CellTiter-Glo viability; active compounds read high", "in_short": "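Mouse BRCA2 R2336H ES cells were reverse-transfected with siRNA (20 nM final), treated at 48 h with 500 nM olaparib, and read by CellTiter-Glo after 72 h. Scores: MAD-based z per siRNA, median per gene, seed off-target correction.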", "values": [{"sequence": "GGUUUAUAGGGAAAGAUUUTT against Pde7b", "z-score": "inactive: -0.944"}, {"sequence": "GGGCUCAUGGGAAUUUCUUTT against Vill", "z-score": "inactive: -2.6"}, {"sequence": "GGCUGGCUAUAAGAAAAAATT against Mrpl35", "z-score": "inactive: 0.12"}, {"sequence": "CGGUAUUUCAUCCUGGAUATT against AA960558", "z-score": "inactive: -0.142"}, {"sequence": "GGCUAUGCAGAUGGUACCUTT against Vil1", "z-score": "inactive: -0.536"}, {"sequence": "GCAGGUUAUGGUCAUAUUUTT against 6820429M01", "z-score": "inactive: -0.257"}, {"sequence": "GCGACUGUUUCUAUCCCAATT against 1500026D16Rik", "z-score": "inactive: 1.57"}, {"sequence": "GGUAUCUACACCAAACUUATT against Klk5", "z-score": "inactive: 1.04"}, {"sequence": "GGAAUAAAGAUUCCUCACATT against Epdd1", "z-score": "inactive: -0.902"}, {"sequence": "GGCCUCUUUUGGUAUUCCATT against Zfp42", "z-score": "inactive: -0.463"}, {"sequence": "GGAAAUCAGUUUUCCUGGATT against Olfr649", "z-score": "inactive: -0.923"}, {"sequence": "CGACUUCAUGAAAUACCAATT against Ptpla", "z-score": "inactive: -0.142"}, {"sequence": "CCUACUUGUUUUGGGCUGGTT against Olfr1384", "z-score": "inactive: -0.266"}, {"sequence": "CCCAUUUGGAUUCACUAACTT against C630028F04Rik", "z-score": "inactive: 1.08"}, {"sequence": "GGAUGGAUGUUUGCAUAAATT against Msx2", "z-score": "inactive: 0.986"}, {"sequence": "GGUAAACGGCUUUUCUUAUTT against 3010021M21Rik", "z-score": "inactive: 1.33"}, {"sequence": "CCACCGUUUCGUACAUAAATT against Gcat", "z-score": "inactive: -0.305"}, {"sequence": "GCUGAUCUAAGGCUCAAAATT against F830005K03Rik", "z-score": "inactive: -0.743"}, {"sequence": "GCCGAGACAAUGGAAAUAATT against Phtf1", "z-score": "inactive: 1.22"}, {"sequence": "CCUUGGAUGCCUUUUACUGTT against Olfr1428", "z-score": "inactive: 0.797"}, {"sequence": "GGGUUGCCAUCGAGACAAGTT against Rdbp", "z-score": "inactive: 0.577"}, {"sequence": "GGACAACUUCCUAGGGCUCTT against D9Ertd280e", "z-score": "inactive: -0.454"}, {"sequence": "CGCACUUCAAGUUUAAUUGTT against Mmab", "z-score": "inactive: 1.02"}, {"sequence": "GGUGAAAUCAGAAUUUGCGTT against Defb23", "z-score": "inactive: -0.132"}, {"sequence": "GGUGUGGCUGUUCUGAUGATT against Olfr771", "z-score": "inactive: -1.93"}, {"sequence": "CGACGACUAGACCUCAUCUTT against Dtx4", "z-score": "inactive: -0.0371"}, {"sequence": "GGUUAUAAAAAACAACCUGTT against Cpne3", "z-score": "inactive: 0.0568"}, {"sequence": "GGUCUCAGAGUACAUUUCCTT against Pde4a", "z-score": "inactive: -0.167"}, {"sequence": "GUUGUUGCUGGACUUCUUGTT against Olfr1443", "z-score": "inactive: -0.0381"}, {"sequence": "CAUAAUCUGCACUACAAGCTT against Olfr309", "z-score": "inactive: -0.764"}, {"sequence": "GCAUGUGCUAUAAUGAUCATT against LOC432723", "z-score": "inactive: -0.698"}, {"sequence": "GGGAGAACCUGGCAUUCCUTT against Col23a1", "z-score": "inactive: -1.59"}, {"sequence": "GGACAGACGGUCUUCUAUATT against Znrd1", "z-score": "inactive: -1.72"}, {"sequence": "GGUAGAACAGUGCUUAAAGTT against BC027231", "z-score": "inactive: -0.0219"}, {"sequence": "CCACUAAAAUUGACAAUGATT against Plxna1", "z-score": "inactive: 0.344"}, {"sequence": "GAAUGUCAGAACCAUCCUCTT against Cdc34", "z-score": "inactive: 1.45"}, {"sequence": "GGAUAUCCGUGAGAUUUCATT against Timm10", "z-score": "inactive: -0.931"}, {"sequence": "GCCUUCGAUAAAGUUUUCCTT against Sult2a2", "z-score": "inactive: 0.593"}, {"sequence": "GGCAUUUGAGUGGACUGUUTT against C86302", "z-score": "inactive: -2.3"}, {"sequence": "CCAAUAAUGGAAGAACCUCTT against Zzz3", "z-score": "inactive: -0.575"}, {"sequence": "GGAUGUACCCUUAAUAAACTT against Gabra5", "z-score": "inactive: 0.36"}, {"sequence": "GGAGAUCUUAGAGAAAUUATT against Pak1", "z-score": "inactive: -0.0368"}, {"sequence": "GCAGAUGAGAGGAUCCUUATT against Nfatc2", "z-score": "inactive: 0.0866"}, {"sequence": "CCGAACUUUCAUUCAAUAUTT against 6720456H20Rik", "z-score": "inactive: 0.555"}, {"sequence": "GCUGCAUGAAGGUGCUAAATT against Pcmt1", "z-score": "inactive: 1.09"}, {"sequence": "CGACUCAACUUCUCCCAUGTT against Pklr", "z-score": "inactive: 2.93"}, {"sequence": "GGUGUACAGCUGUGACCUGTT against Chn1", "z-score": "inactive: -1.78"}, {"sequence": "GCACCUUCAACCAACAAGGTT against Zcsl2", "z-score": "inactive: -0.466"}, {"sequence": "CCCAACCUCAAUGAAACUATT against Arfip2", "z-score": "inactive: -0.517"}, {"sequence": "GGAGGACUCAGCACUCUUUTT against E130311K13", "z-score": "inactive: -0.331"}, {"sequence": "CCUUUGUGUCCUAACGGUGTT against 2410129E14Rik", "z-score": "inactive: 0.0419"}, {"sequence": "GGAAUUUUCUGGAAAUCCATT against 4432405B04Rik", "z-score": "inactive: 0.1"}, {"sequence": "GGAACAAUCACUCUUUGGCTT against Olfr123", "z-score": "inactive: 0.974"}, {"sequence": "GGAAUUGCUGAGGCACUUCTT against Nfkbia", "z-score": "inactive: -1.05"}, {"sequence": "GGAGGUUUUCCGAAGUAUUTT against Pnpt1", "z-score": "inactive: 0.149"}, {"sequence": "GGAAUCUGUGUAUAAUCUUTT against Dst", "z-score": "inactive: -0.0108"}, {"sequence": "GCACUAAUGACUACAUCCGTT against Cklfsf4", "z-score": "inactive: 1.42"}, {"sequence": "GGAGAAAUCCGUCUGACCATT against Pcdhb12", "z-score": "inactive: 0.189"}, {"sequence": "GGCUGUAGUCAUAAGCACUTT against Ppp1r11", "z-score": "inactive: -0.675"}, {"sequence": "GGAUAUCCUUUCAAUAGAATT against Mcf2", "z-score": "inactive: 0.0729"}, {"sequence": "GGAAGAACAAUUGUGGCAUTT against Abca9", "z-score": "inactive: -0.319"}, {"sequence": "GGAAGACAAUGAACUUGUUTT against Loxhd1", "z-score": "inactive: -1.17"}, {"sequence": "CCUAAGGCAAUCCCUAUUGTT against 2210415K24Rik", "z-score": "inactive: -0.439"}, {"sequence": "GCAACAAGUUCCCAGUAUCTT against Dnahc1", "z-score": "inactive: -2.55"}, {"sequence": "GGCAUUGUAACCCUUGUAATT against Zfp187", "z-score": "inactive: -0.901"}, {"sequence": "GGAAGCUGGCAAGUUUAUGTT against 1700026D08Rik", "z-score": "inactive: -0.329"}]}]}
